Patent publication EP4803098A1, “GIPR BLOCKING TYPE ANTIBODY AND ANTIBODY CONJUGATE THEREOF” (Shandong Boan Biotechnology Co., Ltd., priority 2023, dated 2025)
Results are given in words; binding and its absence hold for the method and conditions named. Some results given as binding are weak or reduced against the parent protein; the word gives no strength. Tags and fused reporters may be left off the sequences shown.

Target: T1, hGIPR-Fc protein (human) (UniProt P48546)
T1 sequence (looked up): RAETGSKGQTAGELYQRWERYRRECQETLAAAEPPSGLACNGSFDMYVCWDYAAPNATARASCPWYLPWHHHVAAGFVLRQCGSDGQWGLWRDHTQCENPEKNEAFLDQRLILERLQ
Experiment: ELISA, hGIPR-Fc coated

B1: BA191 (antibody, human IgG1, kappa, L234A L235A, V domains shown)
VH: EVQLVQSGAEVKKPGSSVKVSCKASGGTFSTFSSYAISWVRQAPGQGLEWMGRIIPILGIGNNAQKFQGRVTITADKSTSTAYMELSSLRSEDTAVYYCAREKDWGHFDYWGQGTLVTVSS
VL: DIQMTQSPSSLSASVGDRVTITCRASQGISNYLAWFQQKPGKAPKSLIYAASSLQSGVPSKFSGSGSGTDFTLTISSLQPEDFATYYCQQYNSYPITFGQGTRLEIKR
binding: binds

B2: CE947 (antibody, human IgG1, kappa, L234A L235A, V domains shown)
VH: EVQLVQSGAEVKKPGSSVKVSCKASGGTFNNYAISWVRQAPGQGLEWMGRIIPFLDIASNAQKFQGKVTITADKSTSTAYMELSSLRSEDTAVYYCAREVDWGWFDSWGQGTLVTVSS
VL: DIQMTQSPSSLSASVGDRVTITCRASQGISNYLAWFQQKPGKAPKSLIYAASSLQSGVPSRFSGSGSGTDFTLTISNLQPEDFATYYCLQYYDYPLTFGGGTKLEIKR
binding: binds

B3: CE560 (antibody, human IgG1, kappa, L234A L235A, V domains shown)
VH: EVQLVQSGAEVKKPGSSVKVSCKASGGTFNNYAISWVRQAPGQGLEWMGRIIPFLDIASYAQKFQGKVTITADKSTSTAYMELSSLRSEDTAVYYCAREVDWGWFDSWGQGTLVTVSS
VL: IQMTQSPSSLSASVGDRVTITCRASQGISSYLAWYQQKPGKAPKLLIYAASTLQSGVPSRFSGSGSGTDFTLTISSLQPEDFATYYCQQLNSYPLTFGGGTKVEIKR
binding: binds
